Some of the results follow. Many values rest on one well or one pass, so single values are uncertain.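 The apoptosis fraction was the count of cleaved-PARP antibody-stained nuclei relative to all DNA-stained nuclei, imaged in 1,536-well plates. Screening doses were set so most cells survived, and baseline and induced cleaved-PARP levels vary greatly across cell lines.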
Tests used:
Test in all cases: cleaved PARP positive nuclei fraction relative to DMSO control; melanoma cells; higher = more apoptosis
Details in all cases: library dose: low library concentration; 72 h
[1] = test system: COLO792
[2] = test system: COLO800
[3] = test system: COLO829
[4] = test system: G361
[5] = test system: IPC-298
[6] = test system: IST-MEL1
[7] = test system: LB2518-MEL
[8] = test system: LOXIMVI
[9] = test system: MEL-HO

| Compound | cleaved PARP positive nuclei fraction [1] [%] | cleaved PARP positive nuclei fraction [2] [%] | cleaved PARP positive nuclei fraction [3] [%] | cleaved PARP positive nuclei fraction [4] [%] | cleaved PARP positive nuclei fraction [5] [%] | cleaved PARP positive nuclei fraction [6] [%] | cleaved PARP positive nuclei fraction [7] [%] | cleaved PARP positive nuclei fraction [8] [%] | cleaved PARP positive nuclei fraction [9] [%] |
| --- | --- | --- | --- | --- | --- | --- | --- | --- | --- |
| C[C@]12O[C@H](C[C@]1(O)CO)n1c3ccccc3c3c4c(c5c6ccccc6n2c5c31)CNC4=O [Lestaurtinib] + CC1(C)NC(=O)N(c2ccc([N+](=O)[O-])c(C(F)(F)F)c2)C1=O [nilutamide] (first compound 0.004 µM, partner dose 1 µM) | 111 | 87.9 | 54.2 | 60.3 | 24.1 | 90.2 | 102 | 61.7 | 72.5 |
| CC(=O)c1c(C)c2cnc(Nc3ccc(N4CCNCC4)cn3)nc2n(C2CCCC2)c1=O [palbociclib] + Cc1cc(SCc2sc(-c3ccc(C(F)(F)F)c(F)c3)nc2C)ccc1OCC(=O)O [GW0742] (first compound 0.04 µM, partner dose 2 µM) | 106 | 168 | 70.4 | 83.4 | 104 | 143 | 94.8 | 18 | – |
| CNC(=O)c1cc(Oc2ccc(NC(=O)Nc3ccc(Cl)c(C(F)(F)F)c3)cc2)ccn1 [sorafenib] + O=C(Oc1ccc([N+](=O)[O-])cc1)N1CCC(C(O)(c2ccc3c(c2)OCO3)c2ccc3c(c2)OCO3)CC1 [JZL184] (first compound 0.4 µM, partner dose 1 µM) | 165 | 59.8 | 50.9 | 89.3 | 31.4 | 162 | 64.4 | 126 | – |
| O=C(/C=C/c1cccnc1)NCCCCC1CCN(C(=O)c2ccccc2)CC1 + Cc1cc(SCc2sc(-c3ccc(C(F)(F)F)c(F)c3)nc2C)ccc1OCC(=O)O [GW0742] (first compound 0.01 µM, partner dose 2 µM) | 615 | 408 | 287 | 3060 | 731 | 25.9 | 88.3 | 72.5 | – |
| Cn1cc(C2=C(c3cn(C4CCN(Cc5ccccn5)CC4)c4ccccc34)C(=O)NC2=O)c2ccccc21 [Enzastaurin] + CCCCCCCCCCCC1=C(O)C(=O)C=C(O)C1=O [Embelin] (first compound 0.8 µM, partner dose 1.2 µM) | 115 | 41.1 | 76.5 | 40 | 66.4 | 147 | 31.6 | 177 | – |
| Cn1cc(C2=C(c3cn(C4CCN(Cc5ccccn5)CC4)c4ccccc34)C(=O)NC2=O)c2ccccc21 [Enzastaurin] + OCCn1cc(-c2cnc3nnn(Cc4ccc5ncccc5c4)c3n2)cn1 [PF04217903] (first compound 0.8 µM, partner dose 1 µM) | 55.4 | 91.2 | 119 | 57.6 | 45.7 | 100 | 52.5 | 65.1 | 65.6 |
| C[C@]12O[C@H](C[C@]1(O)CO)n1c3ccccc3c3c4c(c5c6ccccc6n2c5c31)CNC4=O [Lestaurtinib] + Cc1ccc(NC(=O)c2cccc(N(C)C)c2)cc1NC(=O)c1ccc(O)cc1 [ZM336372] (first compound 0.004 µM, partner dose 2 µM) | 83.7 | 173 | 156 | 84.4 | 159 | 107 | 50.9 | 83.9 | 138 |
| Cn1cc(C2=C(c3cn(C4CCN(Cc5ccccn5)CC4)c4ccccc34)C(=O)NC2=O)c2ccccc21 [Enzastaurin] + Oc1nc(-c2ccc(C(F)(F)F)cc2)nc2c1CSCC2 [XAV939] (first compound 0.8 µM, partner dose 2 µM) | 72.5 | 104 | 83.6 | 124 | 80.8 | 68.1 | 68.1 | 48.1 | – |
| Cn1cc(C2=C(c3cn(C4CCN(Cc5ccccn5)CC4)c4ccccc34)C(=O)NC2=O)c2ccccc21 [Enzastaurin] + COc1ccc(-c2ccc3c(N4CCOCC4)nc(N4C[C@@H](C)O[C@@H](C)C4)nc3n2)cc1CO [KU0063794] (first compound 0.8 µM, partner dose 0.02 µM) | 113 | 206 | 56.2 | 66.8 | 45.3 | 202 | 162 | 108 | – |
| Cn1cc(C2=C(c3cn(C4CCN(Cc5ccccn5)CC4)c4ccccc34)C(=O)NC2=O)c2ccccc21 [Enzastaurin] + Cn1cncc1[C@@](N)(c1ccc(Cl)cc1)c1ccc2c(c1)c(-c1cccc(Cl)c1)cc(=O)n2C [tipifarnib] (first compound 0.8 µM, partner dose 0.01 µM) | 84.5 | 140 | 48.1 | 94.4 | 166 | 94.3 | 80.5 | 75.4 | 43.6 |
| N.N.[Cl][Pt][Cl] [cisplatin] + CC(C)(C)c1cnc(CSc2cnc(NC(=O)C3CCNCC3)s2)o1 [SNS-032] (first compound 1.6 µM, partner dose 0.01 µM) | 128 | 94 | 95.5 | 72.4 | 179 | 31.8 | 58.6 | 130 | 33.9 |
| C[As](C)SC[C@H](NC(=O)CC[C@H](N)C(=O)O)C(=O)NCC(=O)O [Darinaparsin] + C[C@@H]1CCN(C(=O)CC#N)C[C@@H]1N(C)c1ncnc2[nH]ccc12 [CP690550] (first compound 0.4 µM, partner dose 1 µM) | 88.9 | 63.9 | 69.3 | 70.1 | 42.8 | 94 | 47.4 | 203 | 199 |
| C[As](C)SC[C@H](NC(=O)CC[C@H](N)C(=O)O)C(=O)NCC(=O)O [Darinaparsin] + O=C(Nc1cccc(Cl)c1)Nc1ncc(CCNc2ncnc3ccsc23)s1 [SNS314] (first compound 0.4 µM, partner dose 0.0008 µM) | 166 | 86 | 44.6 | 48.8 | 238 | 303 | 111 | 149 | 208 |
| Cn1cc(C2=C(c3cn(C4CCN(Cc5ccccn5)CC4)c4ccccc34)C(=O)NC2=O)c2ccccc21 [Enzastaurin] + CN(C)S(=O)(=O)c1ccc2c(c1)/C(=C/c1cc3c([nH]1)CCCC3)C(=O)N2 [SU6656] (first compound 0.8 µM, partner dose 0.4 µM) | 97.7 | 163 | 83.5 | 153 | 174 | 102 | 52.2 | 25 | 66.7 |
| C[As](C)SC[C@H](NC(=O)CC[C@H](N)C(=O)O)C(=O)NCC(=O)O [Darinaparsin] + O=C(CCCCCCC(=O)Nc1ccccc1)NO [vorinostat] (first compound 0.4 µM, partner dose 0.08 µM) | 101 | 142 | 98.2 | 67.1 | 84.4 | 83.6 | 183 | 109 | 66.4 |
| Cn1cc(C2=C(c3cn(C4CCN(Cc5ccccn5)CC4)c4ccccc34)C(=O)NC2=O)c2ccccc21 [Enzastaurin] + NC(=O)Nc1cc(-c2cccc(F)c2)sc1C(=O)N[C@H]1CCCNC1 [AZD7762] (first compound 0.8 µM, partner dose 0.02 µM) | 61.8 | 108 | 134 | 76.8 | 171 | 63.5 | 55.9 | 123 | 124 |
| Cn1cc(C2=C(c3cn(C4CCN(Cc5ccccn5)CC4)c4ccccc34)C(=O)NC2=O)c2ccccc21 [Enzastaurin] + C[C@@H]1CCN(C(=O)CC#N)C[C@@H]1N(C)c1ncnc2[nH]ccc12 [CP690550] (first compound 0.8 µM, partner dose 1 µM) | 48.9 | 45.9 | 83.2 | 59.3 | 84.2 | 91.7 | 97.7 | 138 | 369 |
| C[C@]12O[C@H](C[C@]1(O)CO)n1c3ccccc3c3c4c(c5c6ccccc6n2c5c31)CNC4=O [Lestaurtinib] + C[C@@H]1CCN(C(=O)CC#N)C[C@@H]1N(C)c1ncnc2[nH]ccc12 [CP690550] (first compound 0.004 µM, partner dose 1 µM) | 61.1 | 74.4 | 126 | 75 | 97.1 | 191 | 191 | 76.4 | 149 |
| C[C@]12O[C@H](C[C@]1(O)CO)n1c3ccccc3c3c4c(c5c6ccccc6n2c5c31)CNC4=O [Lestaurtinib] + CO[C@@H]1[C@H](N(C)C(=O)c2ccccc2)C[C@H]2O[C@]1(C)n1c3ccccc3c3c4c(c5c6ccccc6n2c5c31)C(=O)NC4 [Midostaurin] (first compound 0.004 µM, partner dose 0.08 µM) | 212 | 93.5 | 128 | 120 | 89.6 | 91.2 | 62.3 | 360 | 62.5 |
| C[C@]12O[C@H](C[C@]1(O)CO)n1c3ccccc3c3c4c(c5c6ccccc6n2c5c31)CNC4=O [Lestaurtinib] + O=C(CCCCCCC(=O)Nc1ccccc1)NO [vorinostat] (first compound 0.004 µM, partner dose 0.08 µM) | 23.3 | 48.8 | 84.7 | 86.2 | 84.2 | 131 | 86 | 30.4 | 74.3 |
| C[C@]12O[C@H](C[C@]1(O)CO)n1c3ccccc3c3c4c(c5c6ccccc6n2c5c31)CNC4=O [Lestaurtinib] + CN(NC(=O)CC(=O)NN(C)C(=S)c1ccccc1)C(=S)c1ccccc1 [STA4783] (first compound 0.004 µM, partner dose 0.006 µM) | 138 | 92.1 | 80.9 | 67.3 | 62.1 | 160 | 108 | 54.8 | 77.9 |
| C[C@]12O[C@H](C[C@]1(O)CO)n1c3ccccc3c3c4c(c5c6ccccc6n2c5c31)CNC4=O [Lestaurtinib] + NCC(=O)Nc1ccc(-n2nc(C(F)(F)F)cc2-c2ccc3c(ccc4ccccc43)c2)cc1 [OSU03012] (first compound 0.004 µM, partner dose 1 µM) | 38.6 | 51.9 | 93.7 | 137 | 68.6 | 39.6 | 109 | 81.7 | 41 |

As entered above.
Value of C[C@]12O[C@H](C[C@]1(O)CO)n1c3ccccc3c3c4c(c5c6ccccc6n2c5c31)CNC4=O [Lestaurtinib] + C[C@@H]1CCN(C(=O)CC#N)C[C@@H]1N(C)c1ncnc2[nH]ccc12 [CP690550] (first compound 0.004 µM, partner dose 1 µM) under cleaved PARP positive nuclei fraction [6] [%]: 191
Value of Cn1cc(C2=C(c3cn(C4CCN(Cc5ccccn5)CC4)c4ccccc34)C(=O)NC2=O)c2ccccc21 [Enzastaurin] + CCCCCCCCCCCC1=C(O)C(=O)C=C(O)C1=O [Embelin] (first compound 0.8 µM, partner dose 1.2 µM) under cleaved PARP positive nuclei fraction [1] [%]: 115

Reference: the supplement of paper PMC4604168 (melanoma cell lines)
